Data: PMC3182920

How the values were obtained:
Test in all cases: ELISA; N1V-MBP proteins immobilised on a 96 well plate (10 µg/ml in PBS, overnight at 4°C); purified gD serially diluted in PBS-T milk; bound gD detected with polyclonal rabbit serum R8; both purified
N1V-MBP F129W (human) = molecular target: T1, N1V-MBP F129W (human) (UniProt Q15223)
T1 sequence: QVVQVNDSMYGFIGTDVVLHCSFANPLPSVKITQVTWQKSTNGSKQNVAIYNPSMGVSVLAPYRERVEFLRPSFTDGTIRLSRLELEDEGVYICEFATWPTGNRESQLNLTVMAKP

N1V-MBP S84R (human) = molecular target: T2, N1V-MBP S84R (human) (UniProt Q15223)
T2 sequence: T1 sequence with S54R, W99F

N1V-MBP T66Q (human) = molecular target: T3, N1V-MBP T66Q (human) (UniProt Q15223)
T3 sequence: T1 sequence with T36Q, W99F

Measured: binding

HSV-1 glycoprotein D ectodomain truncated at residue 306 (gD306t) (herpes simplex virus type 1) (domain or fragment)
binds: all assays above

Residue numbers refer to the chain shown, from its start. These are yes or no findings as the source states them, for the method shown. Binding can be weak; no strength is given. Sequences can lack the tags named with a protein.
